# Data published in patent publication US6660310B2, “Method to infuse fresh fruits and vegetables with an agent” (American Moxie LLC, priority 2000, dated 2003).
# Assays:
# [1] = test system: Tomato; assay: Experiment 5: infusion of various agents, amount infused; parameters: species or system cherry tomatoes; conditions: bath 2% agent, 0.001% Tween 20, 30 kPa for 10 minutes, Ca++, Zn++ by AA Spectroscopy after subtraction of initial levels
# [2] = test system: Grape; assay: as above; parameters: species or system seedless grapes; conditions: bath 2% agent, 0.001% Tween 20, 30 kPa for 10 minutes, Ca++, Zn++ by AA Spectroscopy after subtraction of initial levels
# [3] = test system: Apple; assay: Experiment 2: amount of 3H glutamate infused at various pressures; parameters: species or system Gala apples; conditions: 15 minute, 2% 3H glutamate bath
# [4] = test system: Celery; assay: as above; conditions: 15 minute, 2% 3H glutamate bath
# [5] = test system: Carrot; assay: as above; parameters: species or system carrots; conditions: 15 minute, 2% 3H glutamate bath
# [6] = test system: Tomato; assay: as above; parameters: species or system cherry tomatoes; conditions: 15 minute, 2% 3H glutamate bath
# [7] = test system: Strawberry; assay: as above; parameters: species or system strawberries; conditions: 15 minute, 2% 3H glutamate bath
# [8] = test system: Grape; assay: as above; parameters: species or system seedless grapes; conditions: 15 minute, 2% 3H glutamate bath
# [9] = test system: Apple; assay: Experiment 3: amount of glutamate infused with surfactant in the infusion bath; parameters: species or system Gala apples; conditions: 30 kPa for 10 minutes
# [10] = test system: Celery; assay: as above; conditions: 30 kPa for 10 minutes
# [11] = test system: Carrot; assay: as above; parameters: species or system carrots; conditions: 30 kPa for 10 minutes
# [12] = test system: Tomato; assay: as above; parameters: species or system cherry tomatoes; conditions: 30 kPa for 10 minutes
# [13] = test system: Strawberry; assay: as above; parameters: species or system strawberries; conditions: 30 kPa for 10 minutes
# [14] = test system: Apple; assay: Experiment 4: amount of glutamate infused at varied agent concentration in the bath; parameters: species or system Gala apples; conditions: 30 kPa for 10 minutes
# [15] = test system: Celery; assay: as above; conditions: 30 kPa for 10 minutes
# [16] = test system: Carrot; assay: as above; parameters: species or system carrots; conditions: 30 kPa for 10 minutes
# [17] = test system: Tomato; assay: as above; parameters: species or system cherry tomatoes; conditions: 30 kPa for 10 minutes
# [18] = test system: Strawberry; assay: as above; parameters: species or system strawberries; conditions: 30 kPa for 10 minutes
# [19] = test system: Grape; assay: as above; parameters: species or system seedless grapes; conditions: 30 kPa for 10 minutes
compound,measurement,setting,value
"[Cl-].[Cl-].[Zn+2] [Zn++, zinc chloride]",infused agent per gram fresh weight,[1],384 μg per gram fresh weight
same,infused agent per gram fresh weight,[2],415 μg per gram fresh weight
"[Ca+2].[Cl-].[Cl-] [Ca++, Calcium chloride]",infused agent per gram fresh weight,[1],419 μg per gram fresh weight
same,infused agent per gram fresh weight,[2],344 μg per gram fresh weight
N[C@@H](CCC(=O)O)C(=O)O [glutamate],infused agent (glutamate) per gram fresh weight material,[3]; 0 kPa,5 μg per gram fresh weight
same,infused agent (glutamate) per gram fresh weight material,[3]; 10 kPa,110 μg per gram fresh weight
same,infused agent (glutamate) per gram fresh weight material,[3]; 20 kPa,319 μg per gram fresh weight
same,infused agent (glutamate) per gram fresh weight material,[3]; 30 kPa,374 μg per gram fresh weight
same,infused agent (glutamate) per gram fresh weight material,[3]; 50 kPa,485 μg per gram fresh weight
same,infused agent (glutamate) per gram fresh weight material,[3]; 75 kPa,459 μg per gram fresh weight
same,infused agent (glutamate) per gram fresh weight material,[3]; 100 kPa,501 μg per gram fresh weight
same,infused agent (glutamate) per gram fresh weight material,[4]; 0 kPa,17 μg per gram fresh weight
same,infused agent (glutamate) per gram fresh weight material,[4]; 10 kPa,231 μg per gram fresh weight
same,infused agent (glutamate) per gram fresh weight material,[4]; 20 kPa,525 μg per gram fresh weight
same,infused agent (glutamate) per gram fresh weight material,[4]; 30 kPa,613 μg per gram fresh weight
same,infused agent (glutamate) per gram fresh weight material,[4]; 50 kPa,719 μg per gram fresh weight
same,infused agent (glutamate) per gram fresh weight material,[4]; 75 kPa,733 μg per gram fresh weight
same,infused agent (glutamate) per gram fresh weight material,[4]; 100 kPa,745 μg per gram fresh weight
same,infused agent (glutamate) per gram fresh weight material,[5]; 0 kPa,11 μg per gram fresh weight
same,infused agent (glutamate) per gram fresh weight material,[5]; 10 kPa,182 μg per gram fresh weight
same,infused agent (glutamate) per gram fresh weight material,[5]; 20 kPa,332 μg per gram fresh weight
same,infused agent (glutamate) per gram fresh weight material,[5]; 30 kPa,407 μg per gram fresh weight
same,infused agent (glutamate) per gram fresh weight material,[5]; 50 kPa,422 μg per gram fresh weight
same,infused agent (glutamate) per gram fresh weight material,[5]; 75 kPa,437 μg per gram fresh weight
same,infused agent (glutamate) per gram fresh weight material,[5]; 100 kPa,458 μg per gram fresh weight
same,infused agent (glutamate) per gram fresh weight material,[6]; 0 kPa,13 μg per gram fresh weight
same,infused agent (glutamate) per gram fresh weight material,[6]; 10 kPa,198 μg per gram fresh weight
same,infused agent (glutamate) per gram fresh weight material,[6]; 20 kPa,388 μg per gram fresh weight
same,infused agent (glutamate) per gram fresh weight material,[6]; 30 kPa,531 μg per gram fresh weight
same,infused agent (glutamate) per gram fresh weight material,[6]; 50 kPa,653 μg per gram fresh weight
same,infused agent (glutamate) per gram fresh weight material,[6]; 75 kPa,672 μg per gram fresh weight
same,infused agent (glutamate) per gram fresh weight material,[6]; 100 kPa,641 μg per gram fresh weight
same,infused agent (glutamate) per gram fresh weight material,[7]; 0 kPa,22 μg per gram fresh weight
same,infused agent (glutamate) per gram fresh weight material,[7]; 10 kPa,314 μg per gram fresh weight
same,infused agent (glutamate) per gram fresh weight material,[7]; 20 kPa,553 μg per gram fresh weight
same,infused agent (glutamate) per gram fresh weight material,[7]; 30 kPa,682 μg per gram fresh weight
same,infused agent (glutamate) per gram fresh weight material,[7]; 50 kPa,821 μg per gram fresh weight
same,infused agent (glutamate) per gram fresh weight material,[7]; 75 kPa,840 μg per gram fresh weight
same,infused agent (glutamate) per gram fresh weight material,[7]; 100 kPa,779 μg per gram fresh weight
same,infused agent (glutamate) per gram fresh weight material,[8]; 0 kPa,15 μg per gram fresh weight
same,infused agent (glutamate) per gram fresh weight material,[8]; 10 kPa,247 μg per gram fresh weight
same,infused agent (glutamate) per gram fresh weight material,[8]; 20 kPa,372 μg per gram fresh weight
same,infused agent (glutamate) per gram fresh weight material,[8]; 30 kPa,443 μg per gram fresh weight
same,infused agent (glutamate) per gram fresh weight material,[8]; 50 kPa,466 μg per gram fresh weight
same,infused agent (glutamate) per gram fresh weight material,[8]; 75 kPa,457 μg per gram fresh weight
same,infused agent (glutamate) per gram fresh weight material,[8]; 100 kPa,481 μg per gram fresh weight
same,infused agent (glutamate) per gram fresh weight tissue,[9]; 0.001% Tween 20 in bath,413 μg per gram fresh weight
same,infused agent (glutamate) per gram fresh weight tissue,[9]; 0.0015 Silwet in bath,464 μg per gram fresh weight
same,infused agent (glutamate) per gram fresh weight tissue,[9]; no surfactant,348 μg per gram fresh weight
same,infused agent (glutamate) per gram fresh weight tissue,[10]; 0.001% Tween 20 in bath,769 μg per gram fresh weight
same,infused agent (glutamate) per gram fresh weight tissue,[10]; 0.0015 Silwet in bath,812 μg per gram fresh weight
same,infused agent (glutamate) per gram fresh weight tissue,[10]; no surfactant,638 μg per gram fresh weight
same,infused agent (glutamate) per gram fresh weight tissue,[11]; 0.001% Tween 20 in bath,491 μg per gram fresh weight
same,infused agent (glutamate) per gram fresh weight tissue,[11]; 0.0015 Silwet in bath,526 μg per gram fresh weight
same,infused agent (glutamate) per gram fresh weight tissue,[11]; no surfactant,389 μg per gram fresh weight
same,infused agent (glutamate) per gram fresh weight tissue,[12]; 0.001% Tween 20 in bath,703 μg per gram fresh weight
same,infused agent (glutamate) per gram fresh weight tissue,[12]; 0.0015 Silwet in bath,737 μg per gram fresh weight
same,infused agent (glutamate) per gram fresh weight tissue,[12]; no surfactant,547 μg per gram fresh weight
same,infused agent (glutamate) per gram fresh weight tissue,[13]; 0.001% Tween 20 in bath,688 μg per gram fresh weight
same,infused agent (glutamate) per gram fresh weight tissue,[13]; 0.0015 Silwet in bath,721 μg per gram fresh weight
same,infused agent (glutamate) per gram fresh weight tissue,[13]; no surfactant,658 μg per gram fresh weight
same,infused agent (glutamate) per gram fresh weight tissue,[14]; agent @ 0.1% in bath,29 μg per gram fresh weight
same,infused agent (glutamate) per gram fresh weight tissue,[14]; agent @ 1% in bath,171 μg per gram fresh weight
same,infused agent (glutamate) per gram fresh weight tissue,[14]; agent @ 2% in bath,318 μg per gram fresh weight
same,infused agent (glutamate) per gram fresh weight tissue,[14]; agent @ 4% in bath,567 μg per gram fresh weight
same,infused agent (glutamate) per gram fresh weight tissue,[14]; agent @ 10% in bath,"1,273 μg per gram fresh weight"
same,infused agent (glutamate) per gram fresh weight tissue,[15]; agent @ 0.1% in bath,49 μg per gram fresh weight
same,infused agent (glutamate) per gram fresh weight tissue,[15]; agent @ 1% in bath,235 μg per gram fresh weight
same,infused agent (glutamate) per gram fresh weight tissue,[15]; agent @ 2% in bath,577 μg per gram fresh weight
same,infused agent (glutamate) per gram fresh weight tissue,[15]; agent @ 4% in bath,723 μg per gram fresh weight
same,infused agent (glutamate) per gram fresh weight tissue,[15]; agent @ 10% in bath,"1,298 μg per gram fresh weight"
same,infused agent (glutamate) per gram fresh weight tissue,[16]; agent @ 0.1% in bath,28 μg per gram fresh weight
same,infused agent (glutamate) per gram fresh weight tissue,[16]; agent @ 1% in bath,99 μg per gram fresh weight
same,infused agent (glutamate) per gram fresh weight tissue,[16]; agent @ 2% in bath,305 μg per gram fresh weight
same,infused agent (glutamate) per gram fresh weight tissue,[16]; agent @ 4% in bath,613 μg per gram fresh weight
same,infused agent (glutamate) per gram fresh weight tissue,[16]; agent @ 10% in bath,"1,361 μg per gram fresh weight"
same,infused agent (glutamate) per gram fresh weight tissue,[17]; agent @ 0.1% in bath,33 μg per gram fresh weight
same,infused agent (glutamate) per gram fresh weight tissue,[17]; agent @ 1% in bath,171 μg per gram fresh weight
same,infused agent (glutamate) per gram fresh weight tissue,[17]; agent @ 2% in bath,500 μg per gram fresh weight
same,infused agent (glutamate) per gram fresh weight tissue,[17]; agent @ 4% in bath,738 μg per gram fresh weight
same,infused agent (glutamate) per gram fresh weight tissue,[17]; agent @ 10% in bath,"1,425 μg per gram fresh weight"
same,infused agent (glutamate) per gram fresh weight tissue,[18]; agent @ 0.1% in bath,72 μg per gram fresh weight
same,infused agent (glutamate) per gram fresh weight tissue,[18]; agent @ 1% in bath,338 μg per gram fresh weight
same,infused agent (glutamate) per gram fresh weight tissue,[18]; agent @ 2% in bath,541 μg per gram fresh weight
same,infused agent (glutamate) per gram fresh weight tissue,[18]; agent @ 4% in bath,829 μg per gram fresh weight
same,infused agent (glutamate) per gram fresh weight tissue,[18]; agent @ 10% in bath,"1,589 μg per gram fresh weight"
same,infused agent (glutamate) per gram fresh weight tissue,[19]; agent @ 0.1% in bath,59 μg per gram fresh weight
same,infused agent (glutamate) per gram fresh weight tissue,[19]; agent @ 1% in bath,192 μg per gram fresh weight
same,infused agent (glutamate) per gram fresh weight tissue,[19]; agent @ 2% in bath,410 μg per gram fresh weight
same,infused agent (glutamate) per gram fresh weight tissue,[19]; agent @ 4% in bath,722 μg per gram fresh weight
same,infused agent (glutamate) per gram fresh weight tissue,[19]; agent @ 10% in bath,"1,290 μg per gram fresh weight"
"COc1ccc(CN(CCN(C)C)c2ccccn2)cc1 [Pyrilamine, pyrilamine]",infused agent per gram fresh weight,[1],355 μg per gram fresh weight
same,infused agent per gram fresh weight,[2],381 μg per gram fresh weight
"C[N+]1(C)[C@@H]2C[C@@H](OC(=O)[C@H](CO)c3ccccc3)C[C@H]1[C@@H]1O[C@@H]12 [Methylscopolamine, methylscopolamine]",infused agent per gram fresh weight,[1],289 μg per gram fresh weight
same,infused agent per gram fresh weight,[2],382 μg per gram fresh weight
"C[C@]1(O)CC[C@H]2[C@@H]3CCC4=CC(=O)CCC4=C3C=C[C@@]21C [Methyltrienolone, methyltrienolone]",infused agent per gram fresh weight,[1],400 μg per gram fresh weight
same,infused agent per gram fresh weight,[2],299 μg per gram fresh weight
